The results in this text go back to PMC3406092.

Results are given in words; binding and its absence hold for the method and conditions named. Some binding calls cover weakened binding; strength is not graded here.

The target of the test is MecI, repressor of mecA, from S. aureus strain N315 (Staphylococcus aureus (strain N315)) (UniProt P68262). Kind of test: two-hybrid; bacterial two-hybrid (restoration of CyaA from T25 and T18 fusions) in E. coli BTH101; lacZ reporter read by X-gal hydrolysis in liquid cultures; fusions at the N' or C' terminals in all combinations.

B1: MecI, repressor of mecA, from S. aureus strain N315 (protein, UniProt P68262 1-123)
chain: MDNKTYEISSAEWEVMNIIWMKKYASANNIIEEIQMQKDWSPKTIRTLITRLYKKGFIDRKKDNKIFQYYSLVEESDIKYKTSKNFINKVYKGGFNSLVLNFVEKEDLSQDEIEELRNILNKK
Take B1: the binding result is “binds”.
